Reference: the supplement of paper PMC6289059
This is one part of the list. Many values rest on one well or one pass, so single values are uncertain.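 Hepatocyte-like cells derived from human stem cells with CRISPR-disrupted DGUOK model liver mtDNA depletion syndrome. Each well's ATP signal was scored against other wells on the same plate, and drugs scoring 3 or above were primary hits.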

What follows are compounds tested on DGUOK Δ14/Δ5 iPSC-derived hepatocyte-like cells (SV20) (assay: ATP level (CellTiter-Glo luminescence) Z score relative to plate distribution, under 2-DG glycolysis block; higher = more cellular ATP (rescue of mitochondrial ATP production)). Details: 5 µM; treatment time: day 15 to day 20 of differentiation (5 days); 2-deoxy-D-glucose: 20 mM for 24 h before assay.

SMILES | ATP level
N[C@@H](Cc1ccccc1)C(=O)O | inactive: 0.541
O=C(O)c1cc(-c2ccccc2)nc2ccccc12 | active: 4.5
C[C@H]1C[C@@H]2[C@H]([C@@H](O)C[C@@]3(C)[C@H]2CC[C@]3(O)C(=O)CO)[C@@]2(C)C=CC(=O)C=C12 | inactive: 0.864
CCCNCC(O)COc1ccccc1C(=O)CCc1ccccc1 (stereo not drawn) | inactive: -9.13
O=[N+]([O-])c1cccc2cn[nH]c12 | inactive: 1.67
COc1ccccc1OCC(O)CN1CCN(CC(=O)Nc2c(C)cccc2C)CC1 (stereo not drawn) | inactive: -3.86
COc1cc([C@@H]2c3cc4c(cc3[C@@H](O[C@@H]3O[C@@H]5CO[C@@H](C)O[C@H]5[C@H](O)[C@H]3O)[C@H]3COC(=O)[C@H]23)OCO4)cc(OC)c1O | inactive: 1.26
O=S(=O)(O)NC1CCCCC1 | inactive: 1.86
CCc1cn([C@H]2C[C@H](O)[C@@H](CO)O2)c(=O)[nH]c1=O | inactive: 1.79
C[C@@H]1O[C@@H](O[C@H]2[C@H](Oc3cc(O)c4c(=O)cc(-c5ccc(O)cc5)oc4c3)O[C@H](CO)[C@@H](O)[C@@H]2O)[C@H](O)[C@H](O)[C@H]1O | inactive: 1.77
CCN(CC)CCc1nc(-c2ccccc2)no1 | inactive: -0.149
Cc1c(N(C)CS(=O)(=O)O)c(=O)n(-c2ccccc2)n1C | active: 9.89
CC(NCCC(c1ccccc1)c1ccccc1)c1ccccc1 (stereo not drawn) | inactive: -3.13
COc1cc2c3cc1Oc1c(OC)c(OC)cc4c1[C@@H](Cc1ccc(O)c(c1)Oc1ccc(cc1)C[C@@H]3N(C)CC2)N(C)CC4 | inactive: -3.32
CC(=O)Oc1ccc2c(C)cc(=O)oc2c1 | inactive: -0.772
COc1c2occc2c(OC)c2c(=O)cc(C)oc12 | inactive: -0.606
C1CNCCN1 | inactive: 1.38
Nc1cc(C(Cl)=C(Cl)Cl)c(S(N)(=O)=O)cc1S(N)(=O)=O | inactive: -3.68
C[C@H](CCC(=O)O)[C@H]1CC[C@H]2[C@@H]3[C@H](O)C[C@@H]4C[C@H](O)CC[C@]4(C)[C@H]3CC[C@]12C | inactive: 1.85
CC(=O)OCC(CCn1cnc2cnc(N)nc21)COC(C)=O | inactive: -4.58

SMILES | ATP level
NNc1nncc2ccccc12 | inactive: -5.17
O=C(/C=C/c1ccc(O)c(O)c1)OCCc1ccccc1 | active: 4.05
NCC(O)CC(=O)O (stereo not drawn) | inactive: -1.68
CN1CCN(CCCN2c3ccccc3Sc3ccc(Cl)cc32)CC1 | inactive: -8.94
O=C1c2ccccc2C(=O)c2c1ccc(O)c2O | inactive: 1.31
CC(=O)Oc1cc(OC(C)=O)c2c(c1)O[C@H](c1ccc(OC(C)=O)c(OC(C)=O)c1)[C@H](OC(C)=O)C2 | inactive: -1.53
CC(=O)O[C@H]1CC[C@@]2(C)[C@@H](CC[C@@H]3[C@@H]2CC(=O)[C@]2(C)[C@@H]4[C@H](C[C@@H]32)O[C@]2(CC[C@@H](C)CO2)[C@H]4C)C1 | inactive: 0.535
O=c1oc2ccccc2c(O)c1Cc1c(O)c2ccccc2oc1=O | inactive: 1.41
COC(=O)/C=C/C(C)=C\C=C\C(C)=C\C=C\C=C(C)\C=C\C=C(C)\C=C\C(=O)O | inactive: -0.768
CN1CCCCC1CCN1c2ccccc2Sc2ccc([S+](C)[O-])cc21 (stereo not drawn) | inactive: -0.831
COc1c(-c2ccccc2)oc2cc(O)cc(O)c2c1=O | inactive: -2.44
NC(=O)N/N=C/c1ccc([N+](=O)[O-])o1 | active: 3.93
O=C(O[C@H]1CN2CCC1CC2)N1CCc2ccccc2[C@@H]1c1ccccc1 | inactive: -0.369
CC1=CC(=O)NS(=O)(=O)O1 | inactive: 2.49
CCCC(=O)Nc1ncnc2c1ncn2[C@@H]1O[C@@H]2COP(=O)(O)O[C@H]2[C@H]1OC(=O)CCC | inactive: 1.11
CC(=O)N[C@@H](CCC(=O)O)C(=O)O | inactive: 0.083
CN(C)CCC[C@@]1(c2ccc(F)cc2)OCc2cc(C#N)ccc21 | inactive: -1.05
O=C1C=CC2=C3c4cc(O)c(O)cc4CC3(O)COC2=C1 (stereo not drawn) | inactive: -8.25
CN1CCCC(n2nc(Cc3ccc(Cl)cc3)c3ccccc3c2=O)CC1 (stereo not drawn) | inactive: -3.95
O=C(CNC(=O)c1ccc(Cl)cc1)NO | inactive: 0.964

A different layout for two compounds above.

| SMILES | ATP level |
| --- | --- |
| CCc1cn([C@H]2C[C@H](O)[C@@H](CO)O2)c(=O)[nH]c1=O | inactive: 1.79 |
| O=C(/C=C/c1ccc(O)c(O)c1)OCCc1ccccc1 | active: 4.05 |

Further results.

SMILES | ATP level
O=c1c(-c2ccccc2)coc2ccccc12 | inactive: 0.41
CC(=O)Oc1cccc(O)c1 | inactive: 0.714
CCN1CCN(C(=O)N[C@@H](C(=O)N[C@@H]2C(=O)N3[C@@H]2SC(C)(C)[C@@H]3C(=O)O)c2ccccc2)C(=O)C1=O | inactive: 1.7
C=CCCCCCCCCCCCC(O)CC(O)CO (stereo not drawn) | inactive: 2.52
O=C(NCO)c1cccnc1 | inactive: -1.25
CO[C@@H]1[C@@H](OC(N)=O)[C@@H](O)[C@H](Oc2ccc3c(O)c(NC(=O)c4ccc(O)c(CC=C(C)C)c4)c(=O)oc3c2C)OC1(C)C | inactive: 2.64
CC1(C)OC(=O)NC1=O | inactive: 2.59
N=C(N)NCC1COC2(CCCCC2)O1 (stereo not drawn) | inactive: 1.61
CCC[C@H](N[C@@H](C)C(=O)N1[C@H](C(=O)O)C[C@@H]2CCCC[C@@H]21)C(=O)OCC | inactive: 1.06
Cn1nnnc1SCC1=C(C(=O)O)N2C(=O)[C@@H](NC(=O)[C@H](O)c3ccccc3)[C@H]2SC1 | inactive: 1.93
COc1ccc(NS(=O)(=O)c2ccc(N)cc2)nn1 | inactive: 2.09
Nc1ccc(C(=O)NCC(=O)O)cc1 | inactive: -3.59
OC[C@H]1O[C@@H](Oc2ccc(O)cc2)[C@H](O)[C@@H](O)[C@@H]1O | inactive: 0.759
Nc1ccc(S(=O)(=O)c2ccc(N)cc2)cc1 | inactive: -2.58
CN(C)CCc1c[nH]c2ccc(Cn3cncn3)cc12 | inactive: -17.1
OCCN1CCN(CCCN2c3ccccc3Sc3ccc(Cl)cc32)CC1 | inactive: -7.42
COC(=O)C1=CO[C@@H](O[C@@H]2O[C@H](CO)[C@@H](O)[C@H](O)[C@H]2O)[C@@H]2[C@@H](C)[C@@H](O)C[C@H]12 | inactive: -3.1
N[C@H]1C(O)O[C@H](CO)[C@@H](O)[C@@H]1O (stereo partly drawn) | inactive: 1.5

Among those listed so far, six have a halogen:
SMILES | ATP level
Nc1cc(C(Cl)=C(Cl)Cl)c(S(N)(=O)=O)cc1S(N)(=O)=O | inactive: -3.68
CN1CCN(CCCN2c3ccccc3Sc3ccc(Cl)cc32)CC1 | inactive: -8.94
CN(C)CCC[C@@]1(c2ccc(F)cc2)OCc2cc(C#N)ccc21 | inactive: -1.05
CN1CCCC(n2nc(Cc3ccc(Cl)cc3)c3ccccc3c2=O)CC1 (stereo not drawn) | inactive: -3.95
O=C(CNC(=O)c1ccc(Cl)cc1)NO | inactive: 0.964
OCCN1CCN(CCCN2c3ccccc3Sc3ccc(Cl)cc32)CC1 | inactive: -7.42
